# Assay results from PubChem BioAssay AID504834 (National Center for Advancing Translational Sciences (NCATS), 2011).
# Hit rate of the full screen: of about 320,000 compounds, about 22,000 (6.9%) were called active. Inconclusive means that the source gave no clear call. Such entries were picked first, then a sample of the others. Calls follow the shape of the dose curve; as a rule, active = well fitted inhibition curve with a large enough effect; inconclusive = small, poorly fitted or top-dose-only effect, or another doubt; inactive = no such curve, though single readings can be large or run the other way. A potency beside an inconclusive call is a rough fit, not a confirmed value.
# Assay: Primary qHTS for delayed death inhibitors of the malarial parasite plastid, 96 hour incubation
# Settings: P. falciparum luciferase reporter growth; series mostly up to 28.7 µM; activity change, negative = inhibition: at the top concentration
# How it was run: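 Cell-based qHTS: luciferase-tagged P. falciparum in erythrocytes (2% hematocrit, 0.05% parasitemia final) incubated with compounds for 96 hours, 37 C, 5% CO2; luciferase detection reagent then added and luminescence measured.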
# % is scaled to controls: 0 for no effect and ±100 for the full control effect; potency is read from the fitted curve at half-maximal effect.
Compound,Potency,"activity change, negative = inhibition"
CC1Cc2cc(S(=O)(=O)CCC(=O)N3CCN(c4ccccc4)CC3)ccc2N1C(=O)C1CC1 (stereo not given),active: 9.28 µM,
Cc1ccc(C)c(Nc2nc3ccc(C)cc3n3cnnc23)c1,,inactive: 6.81%
COc1ccc(-c2oc(NC(=O)CSc3nncn3C)c(C#N)c2-c2ccc(OC)cc2)cc1,"inconclusive: 11.7 µM [inhibitor, single point]",
CC(=O)N1N=C(c2ccc(Br)cc2)OC1(C)CC(=O)Nc1ccccc1 (stereo not given),"inconclusive: 11.7 µM [inhibitor, partial curve, poor fit]",
COc1ccc(/C=C/C(=O)Oc2ccc(/C=N/NC(=O)c3ccccc3)cc2)cc1OC,"inconclusive: 0.262 µM [inhibitor, full curve, poor fit]",
CCOC(=O)/C(=C\c1ccc(OC(F)F)cc1)C1=Nn2c(nnc2-c2ccc(Cl)cc2)SC1,"inconclusive: 18.5 µM [inhibitor, single point]",
COc1ccc(CC(=O)c2ccc(OC3OC(CO)C(O)C(O)C3O)cc2O)cc1 (stereo not given),"inconclusive: 14.7 µM [inhibitor, partial curve]",
COc1cc(OC)cc(C(=O)Nc2ccc(N3CCOCC3)cc2N2CCOCC2)c1,active: 13.1 µM,
N#CCc1nc2ccccc2c(=O)[nH]1,,inactive: 0%
CC(C)[C@]1(c2ccc(Cl)cc2)ON(c2ccccc2C(F)(F)F)C1=O,active: 1.65 µM,
CCC(O)C1CCN(Cc2cn(Cc3ccccc3)nc2-c2cc3ccccc3o2)CC1 (stereo not given),,inactive: 0%
COc1ccc(C(CNC(=O)CSc2ccccc2F)N2CCOCC2)cc1 (stereo not given),"inconclusive: 18.5 µM [inhibitor, single point]",
CC(C)(C)OC(=O)NCC1CCC(C(=O)NC[C@H](CC(=O)O)c2ccc(Cl)cc2)CC1 (stereo not given in full),"inconclusive: 2.33 µM [inhibitor, full curve]",
CCN(c1ccccc1C(=O)O)S(=O)(=O)c1ccc2[nH]c(=O)[nH]c2c1,,inactive: 8.71%
CC(=O)N1CCN(S(=O)(=O)c2cccc(C(=O)N(C)Cc3ccc(C)o3)c2)CC1,,inactive: 0.68%
COc1cc(CNc2ccc3[nH]c(=O)[nH]c3c2)ccc1OCc1ccc(C)cc1,,inactive: 36%
CC1=NN(C(C#N)c2ccc(F)cc2)C(c2ccccc2)C1 (stereo not given),active: 14.7 µM,
NS(=O)(=O)c1ccc(CNC(=O)c2cc(=O)[nH]c3ccccc23)cc1,,inactive: 28.7%
NC(=O)c1ccsc1NC(=O)c1ccc(S(=O)(=O)N2CCCc3ccccc32)cc1,active: 10.4 µM,
CC(=O)Nc1sc(C)c(C)c1C(=O)OCC(=O)N(Cc1ccccc1)C(C)C,,inactive: -21.5%
CN(Cc1nc2ccccc2c(=O)[nH]1)C(=O)COc1ccccc1Cc1ccccc1,"inconclusive: 18.5 µM [inhibitor, single point]",
Cc1noc2ncnc(Sc3c(Cl)cccc3Cl)c12,active: 2.33 µM,
O=C(NCCCN1CCOCC1)c1ccc2c(c1)N(Cc1cccc(Cl)c1)C(=O)c1ccccc1S2=O (stereo not given),,inactive: -6.78%

# Gathered by group, the entries above with an aryl methoxy group.
Compound,Potency,"activity change, negative = inhibition"
COc1ccc(-c2oc(NC(=O)CSc3nncn3C)c(C#N)c2-c2ccc(OC)cc2)cc1,"inconclusive: 11.7 µM [inhibitor, single point]",
COc1ccc(/C=C/C(=O)Oc2ccc(/C=N/NC(=O)c3ccccc3)cc2)cc1OC,"inconclusive: 0.262 µM [inhibitor, full curve, poor fit]",
COc1ccc(CC(=O)c2ccc(OC3OC(CO)C(O)C(O)C3O)cc2O)cc1 (stereo not given),"inconclusive: 14.7 µM [inhibitor, partial curve]",
COc1cc(OC)cc(C(=O)Nc2ccc(N3CCOCC3)cc2N2CCOCC2)c1,active: 13.1 µM,
COc1ccc(C(CNC(=O)CSc2ccccc2F)N2CCOCC2)cc1 (stereo not given),"inconclusive: 18.5 µM [inhibitor, single point]",
COc1cc(CNc2ccc3[nH]c(=O)[nH]c3c2)ccc1OCc1ccc(C)cc1,,inactive: 36%

# Following part.

Compound,Potency,"activity change, negative = inhibition"
CCN(CC)C(=O)Cn1cc(C(=O)C(=O)N(CC)C2CCCCC2)c2ccccc21,"inconclusive: 18.5 µM [inhibitor, single point]",
CCN(C(=O)CN1C(=O)NC(c2ccccc2)(c2ccc(C)c(C)c2)C1=O)C1CCCCC1 (stereo not given),active: 3.29 µM,
Cc1ccc(NC(=O)NN2CCOCC2)cc1,"inconclusive: 18.5 µM [inhibitor, single point]",
CCOc1ccc(Nc2ccc(S(=O)(=O)N3CCN(C)CC3)cc2[N+](=O)[O-])cc1OCC,"inconclusive: 10.4 µM [inhibitor, partial curve]",
O=C(CSc1nc2cccnc2n1Cc1ccccc1)NC1CCCCC1,"inconclusive: 9.28 µM [inhibitor, single point]",
O=C(CCN1C(=O)S/C(=C\c2ccccc2)C1=O)N1CCCCC1,,inactive: 26.9%
CCCCNS(=O)(=O)c1ccc(NS(=O)(=O)c2c(C)cc(C)cc2C)cc1,"inconclusive: 0.147 µM [inhibitor, full curve, poor fit]",
Cc1ccc(NS(=O)(=O)c2ccc(C(=O)NCC(c3ccco3)N3CCCCC3)cc2)cc1 (stereo not given),"inconclusive: 18.5 µM [inhibitor, single point]",
Cc1ccc2c(Cl)c(C)c(N3CCCC3)nc2n1,"inconclusive: 14.7 µM [inhibitor, single point]",
Cc1cc(C)c([C@@H]2C[C@H]3CN(C4CCCC4)C(=O)[C@]34CCCN24)c(-n2cccn2)c1,"inconclusive: 18.5 µM [inhibitor, single point]",
COC(=O)CSCC(=O)Nc1nnc(-c2ccccc2C)s1,,inactive: -2.38%
Cc1cc(C)c(S(=O)(=O)NCC(=O)NCc2ccccn2)c(C)c1,"inconclusive: 5.22 µM [inhibitor, partial curve]",
Cc1cc(N2CCN(C)CC2)nc2ccc(NC(=S)NC3CC3)cc12,"inconclusive: 18.5 µM [inhibitor, single point]",
Cc1cc(=O)n2nc(N3CCCC(C(=O)NCc4ccccc4)C3)sc2n1 (stereo not given),"inconclusive: 20.8 µM [inhibitor, single point]",
CCN(CC)c1ccc(C(=O)N/N=C(\C)c2ccc(O)cc2)cc1,active: 10.4 µM,
Cn1nc(C(C)(C)C)cc1C(=O)NCc1ccc(N2CCCC2=O)cc1,"inconclusive: 11.7 µM [inhibitor, partial curve]",
COCCNC(=O)CCN1N=C(c2ccccc2)CCC1=O,"inconclusive: 3.29 µM [inhibitor, full curve]",
COc1ccccc1NC(=O)COC(=O)c1cc([N+](=O)[O-])ccc1N1CCCC1,"inconclusive: 18.5 µM [inhibitor, single point]",
CCOC(=O)c1nn2c(C(F)(F)F)cc(-c3ccc(OC)cc3)nc2c1Br,"inconclusive: 18.5 µM [inhibitor, single point]",
CCN(CC)S(=O)(=O)c1ccc(NC(=O)C(OC)c2ccccc2)cc1 (stereo not given),"inconclusive: 18.5 µM [inhibitor, single point]",
Cc1cc(=O)oc(C)c1C(=O)NCC1COc2ccccc2O1 (stereo not given),"inconclusive: 0.465 µM [inhibitor, full curve]",
CCC1(c2ccc(F)cc2)NC(=O)N(CC(=O)N2CCN(S(=O)(=O)c3ccc(C)cc3)CC2)C1=O (stereo not given),"inconclusive: 18.5 µM [inhibitor, single point]",
